This is one part of the list. Small differences around the control level are noise.

By UniProt entry, the sequences of proteins in these tests, tags left out. Where a name states a change or a piece, a line headed by the entry shows the natural chain unless it says otherwise.
UniProt O14795: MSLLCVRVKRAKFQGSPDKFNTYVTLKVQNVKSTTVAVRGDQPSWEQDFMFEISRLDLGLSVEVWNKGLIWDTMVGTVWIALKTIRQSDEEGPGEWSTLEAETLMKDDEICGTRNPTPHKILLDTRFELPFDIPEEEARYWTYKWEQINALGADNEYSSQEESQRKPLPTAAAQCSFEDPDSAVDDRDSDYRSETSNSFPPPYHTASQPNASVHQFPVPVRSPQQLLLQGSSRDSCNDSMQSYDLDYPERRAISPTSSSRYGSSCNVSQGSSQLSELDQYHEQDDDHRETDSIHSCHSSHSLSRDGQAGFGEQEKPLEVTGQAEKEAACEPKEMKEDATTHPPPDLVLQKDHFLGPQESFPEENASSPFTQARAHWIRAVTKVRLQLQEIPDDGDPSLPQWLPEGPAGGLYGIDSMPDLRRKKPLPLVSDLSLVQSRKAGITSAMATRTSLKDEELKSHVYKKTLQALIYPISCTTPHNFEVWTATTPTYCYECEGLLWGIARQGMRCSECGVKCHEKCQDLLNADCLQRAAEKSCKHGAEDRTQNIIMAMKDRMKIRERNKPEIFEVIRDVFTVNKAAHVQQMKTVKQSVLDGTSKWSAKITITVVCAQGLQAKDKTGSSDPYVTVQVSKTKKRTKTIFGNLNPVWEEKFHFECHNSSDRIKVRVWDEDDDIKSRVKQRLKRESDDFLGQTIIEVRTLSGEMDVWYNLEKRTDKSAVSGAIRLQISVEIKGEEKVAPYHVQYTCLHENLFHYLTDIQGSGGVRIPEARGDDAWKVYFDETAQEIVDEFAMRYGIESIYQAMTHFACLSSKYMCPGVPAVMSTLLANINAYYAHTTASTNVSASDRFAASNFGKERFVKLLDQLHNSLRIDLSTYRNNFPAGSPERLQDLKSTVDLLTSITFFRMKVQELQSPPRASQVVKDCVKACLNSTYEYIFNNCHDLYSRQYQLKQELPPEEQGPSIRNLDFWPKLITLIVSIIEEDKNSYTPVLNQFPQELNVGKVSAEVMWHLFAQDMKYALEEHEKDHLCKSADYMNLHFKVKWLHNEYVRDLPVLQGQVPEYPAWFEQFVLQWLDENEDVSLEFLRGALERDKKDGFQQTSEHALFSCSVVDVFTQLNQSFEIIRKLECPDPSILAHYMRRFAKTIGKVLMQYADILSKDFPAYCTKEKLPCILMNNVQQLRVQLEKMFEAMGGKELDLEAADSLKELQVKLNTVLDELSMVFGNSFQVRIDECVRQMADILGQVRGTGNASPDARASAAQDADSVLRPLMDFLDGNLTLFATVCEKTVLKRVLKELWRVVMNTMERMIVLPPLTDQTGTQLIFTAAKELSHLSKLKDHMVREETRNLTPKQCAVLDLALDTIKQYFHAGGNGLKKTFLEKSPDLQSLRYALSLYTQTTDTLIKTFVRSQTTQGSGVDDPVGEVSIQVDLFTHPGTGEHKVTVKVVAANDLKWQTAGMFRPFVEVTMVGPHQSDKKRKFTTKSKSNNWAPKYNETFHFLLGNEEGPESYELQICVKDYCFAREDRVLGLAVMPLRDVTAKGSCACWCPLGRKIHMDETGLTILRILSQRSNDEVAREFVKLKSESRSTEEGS
UniProt A9UHW6: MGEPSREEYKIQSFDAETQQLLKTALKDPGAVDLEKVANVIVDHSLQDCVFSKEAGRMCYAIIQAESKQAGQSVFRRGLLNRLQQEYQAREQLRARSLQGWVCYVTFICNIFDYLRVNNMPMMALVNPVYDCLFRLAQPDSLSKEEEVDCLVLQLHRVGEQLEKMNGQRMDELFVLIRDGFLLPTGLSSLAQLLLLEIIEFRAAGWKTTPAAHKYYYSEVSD
UniProt O15164: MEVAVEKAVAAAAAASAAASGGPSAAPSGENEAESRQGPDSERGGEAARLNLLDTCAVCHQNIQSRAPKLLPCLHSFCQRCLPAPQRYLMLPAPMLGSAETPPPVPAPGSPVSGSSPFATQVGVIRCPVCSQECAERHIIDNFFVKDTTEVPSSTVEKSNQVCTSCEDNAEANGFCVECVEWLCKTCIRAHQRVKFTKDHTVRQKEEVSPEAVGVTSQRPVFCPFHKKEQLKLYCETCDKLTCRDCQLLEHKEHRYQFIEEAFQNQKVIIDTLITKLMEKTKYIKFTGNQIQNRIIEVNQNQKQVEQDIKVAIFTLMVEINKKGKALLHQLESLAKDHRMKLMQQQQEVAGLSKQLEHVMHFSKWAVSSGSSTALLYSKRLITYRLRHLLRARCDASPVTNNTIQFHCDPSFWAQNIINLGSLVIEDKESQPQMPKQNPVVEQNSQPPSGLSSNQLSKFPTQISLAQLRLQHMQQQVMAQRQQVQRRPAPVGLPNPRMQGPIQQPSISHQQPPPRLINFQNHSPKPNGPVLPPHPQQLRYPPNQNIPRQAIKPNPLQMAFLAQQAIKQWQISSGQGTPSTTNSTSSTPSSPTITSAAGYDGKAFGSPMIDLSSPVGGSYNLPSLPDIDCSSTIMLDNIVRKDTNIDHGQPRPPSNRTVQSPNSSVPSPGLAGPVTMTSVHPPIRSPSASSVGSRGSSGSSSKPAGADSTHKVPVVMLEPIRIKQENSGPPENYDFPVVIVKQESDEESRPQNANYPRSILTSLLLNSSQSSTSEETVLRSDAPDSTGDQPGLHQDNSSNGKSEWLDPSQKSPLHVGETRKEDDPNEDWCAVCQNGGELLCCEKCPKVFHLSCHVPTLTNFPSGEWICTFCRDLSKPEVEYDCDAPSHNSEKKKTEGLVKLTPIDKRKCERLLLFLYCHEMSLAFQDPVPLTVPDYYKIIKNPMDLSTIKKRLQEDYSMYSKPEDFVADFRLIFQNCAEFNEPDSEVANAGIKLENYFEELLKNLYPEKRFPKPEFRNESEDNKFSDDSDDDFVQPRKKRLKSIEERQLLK
UniProt O15231: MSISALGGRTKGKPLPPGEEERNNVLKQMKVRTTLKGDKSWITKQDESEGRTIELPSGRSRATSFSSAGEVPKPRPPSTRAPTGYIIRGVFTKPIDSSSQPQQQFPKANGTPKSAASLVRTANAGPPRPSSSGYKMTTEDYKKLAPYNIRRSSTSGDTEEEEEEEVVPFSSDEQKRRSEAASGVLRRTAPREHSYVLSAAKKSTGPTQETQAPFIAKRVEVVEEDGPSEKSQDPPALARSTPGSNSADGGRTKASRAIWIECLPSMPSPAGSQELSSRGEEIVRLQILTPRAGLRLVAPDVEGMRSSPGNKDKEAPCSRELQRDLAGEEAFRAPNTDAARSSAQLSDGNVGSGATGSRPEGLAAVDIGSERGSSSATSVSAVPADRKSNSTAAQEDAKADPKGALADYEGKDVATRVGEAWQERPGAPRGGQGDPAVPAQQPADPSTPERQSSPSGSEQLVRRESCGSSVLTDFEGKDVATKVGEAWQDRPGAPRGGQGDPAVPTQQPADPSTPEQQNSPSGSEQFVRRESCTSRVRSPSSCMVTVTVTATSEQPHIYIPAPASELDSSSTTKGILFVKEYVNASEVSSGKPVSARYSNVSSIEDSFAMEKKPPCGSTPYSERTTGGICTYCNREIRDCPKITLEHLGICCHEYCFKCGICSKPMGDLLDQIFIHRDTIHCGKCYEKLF
UniProt O00221: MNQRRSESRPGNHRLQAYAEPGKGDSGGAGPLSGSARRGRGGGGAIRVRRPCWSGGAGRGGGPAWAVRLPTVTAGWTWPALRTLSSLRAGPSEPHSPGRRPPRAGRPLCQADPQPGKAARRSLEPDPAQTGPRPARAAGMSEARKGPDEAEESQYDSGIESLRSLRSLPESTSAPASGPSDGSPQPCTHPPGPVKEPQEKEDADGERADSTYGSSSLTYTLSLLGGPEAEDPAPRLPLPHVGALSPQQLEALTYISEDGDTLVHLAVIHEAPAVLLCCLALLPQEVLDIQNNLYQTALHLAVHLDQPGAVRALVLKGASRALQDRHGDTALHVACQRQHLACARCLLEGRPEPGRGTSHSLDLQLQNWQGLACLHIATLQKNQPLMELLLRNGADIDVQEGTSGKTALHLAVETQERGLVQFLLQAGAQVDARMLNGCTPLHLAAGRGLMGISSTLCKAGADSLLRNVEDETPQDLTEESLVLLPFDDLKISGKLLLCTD
UniProt O00629, whole entry: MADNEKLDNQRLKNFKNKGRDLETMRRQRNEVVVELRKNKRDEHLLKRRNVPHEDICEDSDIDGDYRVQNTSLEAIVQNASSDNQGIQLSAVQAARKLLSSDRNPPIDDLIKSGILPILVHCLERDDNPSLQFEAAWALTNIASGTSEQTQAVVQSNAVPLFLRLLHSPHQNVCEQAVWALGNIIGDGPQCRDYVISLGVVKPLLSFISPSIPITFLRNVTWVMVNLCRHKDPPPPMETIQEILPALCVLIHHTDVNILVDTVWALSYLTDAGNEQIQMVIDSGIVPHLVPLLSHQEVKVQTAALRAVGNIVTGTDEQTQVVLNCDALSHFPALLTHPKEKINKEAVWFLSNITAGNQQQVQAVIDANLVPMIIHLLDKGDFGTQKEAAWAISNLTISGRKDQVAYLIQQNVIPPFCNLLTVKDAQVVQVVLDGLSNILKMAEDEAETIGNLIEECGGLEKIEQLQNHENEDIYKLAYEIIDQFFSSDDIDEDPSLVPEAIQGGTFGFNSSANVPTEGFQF
UniProt O14745: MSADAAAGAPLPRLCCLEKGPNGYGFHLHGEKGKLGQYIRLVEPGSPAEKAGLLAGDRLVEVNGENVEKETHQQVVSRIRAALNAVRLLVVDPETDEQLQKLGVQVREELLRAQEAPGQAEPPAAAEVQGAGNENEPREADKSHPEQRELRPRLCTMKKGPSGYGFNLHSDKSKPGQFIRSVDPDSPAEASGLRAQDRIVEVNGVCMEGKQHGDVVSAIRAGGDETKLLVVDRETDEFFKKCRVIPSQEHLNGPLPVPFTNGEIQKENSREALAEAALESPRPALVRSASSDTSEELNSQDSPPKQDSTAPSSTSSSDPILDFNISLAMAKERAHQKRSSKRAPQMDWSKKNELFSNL
UniProt O14828: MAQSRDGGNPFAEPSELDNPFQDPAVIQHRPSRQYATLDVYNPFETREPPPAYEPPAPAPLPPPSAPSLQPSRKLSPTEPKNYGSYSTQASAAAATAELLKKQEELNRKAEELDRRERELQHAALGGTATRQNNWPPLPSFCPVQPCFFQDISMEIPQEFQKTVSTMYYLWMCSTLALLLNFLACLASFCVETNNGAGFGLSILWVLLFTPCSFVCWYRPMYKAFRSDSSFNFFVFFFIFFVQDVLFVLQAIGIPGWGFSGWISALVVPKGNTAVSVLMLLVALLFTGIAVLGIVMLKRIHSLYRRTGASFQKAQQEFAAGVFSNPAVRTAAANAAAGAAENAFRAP
UniProt O14618: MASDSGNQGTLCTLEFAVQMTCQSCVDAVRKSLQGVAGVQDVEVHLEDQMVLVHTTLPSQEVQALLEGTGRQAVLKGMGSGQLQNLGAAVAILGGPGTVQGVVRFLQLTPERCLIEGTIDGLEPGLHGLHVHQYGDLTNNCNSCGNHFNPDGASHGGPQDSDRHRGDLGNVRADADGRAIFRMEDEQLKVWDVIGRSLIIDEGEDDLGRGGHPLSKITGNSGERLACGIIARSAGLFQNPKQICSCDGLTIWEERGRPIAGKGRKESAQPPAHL
UniProt O00767: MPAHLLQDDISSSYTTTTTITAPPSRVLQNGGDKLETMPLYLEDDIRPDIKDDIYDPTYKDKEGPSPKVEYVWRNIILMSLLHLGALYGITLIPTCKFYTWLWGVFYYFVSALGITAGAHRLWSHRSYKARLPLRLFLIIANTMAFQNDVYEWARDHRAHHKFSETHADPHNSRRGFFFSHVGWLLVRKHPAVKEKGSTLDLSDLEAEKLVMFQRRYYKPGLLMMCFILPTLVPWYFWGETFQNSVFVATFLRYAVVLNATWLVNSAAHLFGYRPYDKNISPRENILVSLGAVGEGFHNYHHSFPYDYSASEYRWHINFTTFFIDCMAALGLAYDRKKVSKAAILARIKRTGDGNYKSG
UniProt O15182: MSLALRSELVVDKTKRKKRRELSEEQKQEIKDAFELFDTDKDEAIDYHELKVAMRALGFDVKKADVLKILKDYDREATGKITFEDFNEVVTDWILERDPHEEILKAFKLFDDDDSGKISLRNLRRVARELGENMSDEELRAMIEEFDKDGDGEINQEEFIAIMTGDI

Compound in this experiment: Cc1nc(Nc2ncc(C(=O)Nc3c(C)cccc3Cl)s2)cc(N2CCN(CCO)CC2)n1 [dasatinib]
The experiment is described as follows: log2 fold change of tryptic peptide abundance, ligand vs vehicle (limited proteolysis) (log2 ratio); higher = more trypsin-susceptible (destabilized). Particulars: ligand concentration: 5 uM; sample: K562 cleared lysate.

Turning to “ARHGEF11 (peptide sequence: VLDLIFYQR, peptide start residue: 755) (UniProt O15085)”, the log2 fold change is -0.201.

In the case of “UNC13B (peptide sequence: ERNKPEIFEVIR, peptide start residue: 559) (UniProt O14795)”, the log2 fold change was -0.555.

Turning to “MIF4GD (peptide sequence: VANVIVDHSLQDCVFSK, peptide start residue: 37) (UniProt A9UHW6)”, the log2 fold change turned out to be 0.155.

Take “TRIM24 (peptide sequence: VAIFTLMVEINKK, peptide start residue: 311) (UniProt O15164)”: the log2 fold change stood at 0.215.

With “UniProt O15231 (peptide sequence: VGEAWQERPGAPR, peptide start residue: 417)”, the log2 fold change stood at 0.276.

Consider “NFKBIE (peptide sequence: GLMGISSTLCK, peptide start residue: 448) (UniProt O00221)”, for which the log2 fold change was -0.382.

Regarding “KPNA4 (peptide sequence: KLLSSDRNPPIDDLIK, peptide start residue: 97) (UniProt O00629)”, the log2 fold change was -0.118.

As for “SLC9A3R1 (peptide sequence: LCCLEKGPNGYGFHLHGEK, peptide start residue: 14) (UniProt O14745)”, the log2 fold change came out at 0.377.

As to “SCAMP3 (peptide sequence: KLSPTEPK, peptide start residue: 74) (UniProt O14828)”, the log2 fold change is -0.0601.

Take “UniProt O14618 (peptide sequence: ESAQPPAHL, peptide start residue: 266)”: the log2 fold change is -0.0481.

For “SCD (peptide sequence: FSETHADPHNSR, peptide start residue: 163) (UniProt O00767)”, the log2 fold change was -0.0385.

Consider “CETN3 (peptide sequence: LFDDDDSGK, peptide start residue: 109) (UniProt O15182)”, for which the log2 fold change is 0.241.
